Values from PubChem BioAssay AID1224826 (NIAID, 2016)

Assay: 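Knock-downs that raise or lower Tnf reporter signal after endotoxin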 (primary screen)
System: RAW264.7 G9 macrophages from mouse bearing reporters for p65 (GFP) and the Tnf promoter (mCherry)
Knock-down reagent: siRNA pool against mouse genes, 100 nM
Duration: 16 h of LPS stimulation, after 2 days of siRNA transfection
Challenge: bacterial lipopolysaccharide (Salmonella minnesota R595), 10 ng/ml
Read-out: 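Nuclear mCherry signal of the Tnf promoter reporter measured by imaging after background removal, scaled to each plate median and turned into robust z-scores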
Direction: Tnf reporter robust z-score: higher = stronger Tnf promoter reporter signal after LPS; Tnf reporter intensity: higher = stronger Tnf promoter reporter signal
Active means: 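a well counts as active at a score of -1.3 or below (Tlr4 knock-down control median) or above 3 (raised signal); controls and wells holding fewer than 50 cells are excluded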
Meaning of the calls: active = Tnf reporter clearly lowered or raised; inactive = no clear change in Tnf reporter
The deposit covers about 17,000 reagents; below is a part drawn at random. Of all reagents, about 1,110 (6.6%) got an active call. 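Active means lowered or raised reporter signal; replicate intensities are raw and not normalised per plate.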 Entries without a mark were called inactive. Reagents against one gene are numbered here.

Gene | reagent | Tnf reporter robust z-score | fewer than 50 cells in well | Tnf reporter intensity, replicate 1 | Tnf reporter intensity, replicate 2
Med6 (mediator complex subunit 6) | 1 | -0.24 | enough cells in well | 268 | 167
Tmem150a (transmembrane protein 150A) | 1 | -0.43 | enough cells in well | 158 | 197
Myod1 (myogenic differentiation 1) | 1 | -0.11 | enough cells in well | 270 | 185
Abcf1 (ATP-binding cassette, sub-family F member 1) | 1 | -1.14 | enough cells in well | 124 | 119
Or51b6 (olfactory receptor family 51 subfamily B member 6) | 1 | -1.15 | enough cells in well | 80.6 | 46
Slc6a5 | 1 | – | fewer than 50 cells per well; well left out of calls | 63.7 | 71.7
Kif5b (kinesin family member 5B) | 1 | 1.07 | enough cells in well | 311 | 216
Mettl22 (methyltransferase 22, Kin17 lysine) | 1 | 0.78 | enough cells in well | 252 | 272
Reg1 (regenerating islet-derived 1) | 1 | -1.52 (active) | enough cells in well | 105 | 57.2
Git2 (GIT ArfGAP 2) | 1 | -0.3 | enough cells in well | 210 | 235
Crhr2 (corticotropin releasing hormone receptor 2) | 1 | 0.05 | enough cells in well | 203 | 328
Ctdnep1 (CTD nuclear envelope phosphatase 1) | 1 | – | fewer than 50 cells per well; well left out of calls | 219 | 452
Clec18a (C-type lectin domain family 18, member A) | 1 | 0.15 | enough cells in well | 228 | 84.3
Mamstr | 1 | -0.07 | enough cells in well | 170 | 145
Pcdhgc5 (protocadherin gamma subfamily C, 5) | 1 | -1.67 (active) | enough cells in well | 81.6 | 41.6
Macroh2a2 (macroH2A.2 histone) | 1 | -0.95 | enough cells in well | 158 | 174
Chka (choline kinase alpha) | 1 | – | fewer than 50 cells per well; well left out of calls | 157 | 125
Wdr59 (WD repeat domain 59) | 1 | 0.65 | enough cells in well | 236 | 160
Slc35a1 | 1 | – | fewer than 50 cells per well; well left out of calls | 35 | 30.9
Kank1 (KN motif and ankyrin repeat domains 1) | 1 | -1.87 (active) | enough cells in well | 157 | 51.2
Gzmf (granzyme F) | 1 | -1.27 | enough cells in well | 173 | 72.4
Plbd1 (phospholipase B domain containing 1) | 1 | 1.19 | enough cells in well | 365 | 109
Ipo11 (importin 11) | 1 | -0.47 | enough cells in well | 177 | 100
Zbtb43 (zinc finger and BTB domain containing 43) | 1 | – | fewer than 50 cells per well; well left out of calls | 185 | 294
Fcamr (Fc receptor, IgA, IgM, high affinity) | 1 | 1.48 | enough cells in well | 275 | 269
Fgfr4 (fibroblast growth factor receptor 4) | 1 | -0.99 | enough cells in well | 134 | 102
B3gat2 (beta-1,3-glucuronyltransferase 2) | 1 | 1.35 | enough cells in well | 264 | 224
Gfi1 (growth factor independent 1 transcription repressor) | 1 | -0.36 | enough cells in well | 259 | 177
Uchl4 (ubiquitin carboxyl-terminal esterase L4) | 1 | 1.75 | enough cells in well | 186 | 122
Zp2 (zona pellucida glycoprotein 2) | 1 | 0.91 | enough cells in well | 370 | 274
Aacs (acetoacetyl-CoA synthetase) | 1 | 2.13 | enough cells in well | 242 | 321
Nutf2 (nuclear transport factor 2) | 1 | -1 | enough cells in well | 115 | 107
Fhip2a (FHF complex subunit HOOK interacting protein 2A) | 1 | 2.04 | enough cells in well | 344 | 320
Twf2 (twinfilin actin binding protein 2) | 1 | – | fewer than 50 cells per well; well left out of calls | 180 | 146
Ccdc186 (coiled-coil domain containing 186) | 1 | -0.13 | enough cells in well | 128 | 185
Slmap (sarcolemma associated protein) | 1 | – | fewer than 50 cells per well; well left out of calls | 104 | 66.8
Smoc1 (SPARC related modular calcium binding 1) | 1 | – | fewer than 50 cells per well; well left out of calls | 35.7 | 36.7
Casp12 (caspase 12) | 1 | -1.75 (active) | enough cells in well | 40.1 | 109
Tmem35a (transmembrane protein 35A) | 1 | 0.47 | enough cells in well | 244 | 181
Pdcd5 (programmed cell death 5) | 1 | -0.17 | enough cells in well | 249 | 155
Or2g25 (olfactory receptor family 2 subfamily G member 25) | 1 | 1.76 | enough cells in well | 311 | 230
Hlx (H2.0-like homeobox) | 1 | 0.27 | enough cells in well | 238 | 225
Oit3 (oncoprotein induced transcript 3) | 1 | 0.7 | enough cells in well | 220 | 195

Next part, starting with the last 5 of the part before.
Gene | reagent | Tnf reporter robust z-score | fewer than 50 cells in well | Tnf reporter intensity, replicate 1 | Tnf reporter intensity, replicate 2
Tmem35a (transmembrane protein 35A) | 1 | 0.47 | enough cells in well | 244 | 181
Pdcd5 (programmed cell death 5) | 1 | -0.17 | enough cells in well | 249 | 155
Or2g25 (olfactory receptor family 2 subfamily G member 25) | 1 | 1.76 | enough cells in well | 311 | 230
Hlx (H2.0-like homeobox) | 1 | 0.27 | enough cells in well | 238 | 225
Oit3 (oncoprotein induced transcript 3) | 1 | 0.7 | enough cells in well | 220 | 195
Trim36 (tripartite motif-containing 36) | 1 | – | fewer than 50 cells per well; well left out of calls | 69.1 | 105
Gnpda2 (glucosamine-6-phosphate deaminase 2) | 1 | -0.31 | enough cells in well | 232 | 138
Dhrs2 (dehydrogenase/reductase member 2) | 1 | -0.11 | enough cells in well | 231 | 84.6
Atad3a (ATPase family, AAA domain containing 3A) | 1 | -1.18 | enough cells in well | 108 | 94.3
Ptpn22 | 1 | 0.52 | enough cells in well | 210 | 294
A330015D16RIK | 1 | 1.5 | enough cells in well | 240 | 251
Unc5c (unc-5 netrin receptor C) | 1 | -0.7 | enough cells in well | 195 | 151
Ctsg (cathepsin G) | 1 | 0.49 | enough cells in well | 284 | 226
Bcl6b (B cell CLL/lymphoma 6, member B) | 1 | -0.54 | enough cells in well | 80.8 | 184
Clgn (calmegin) | 1 | -0.8 | enough cells in well | 151 | 179
Ogg1 (8-oxoguanine DNA-glycosylase 1) | 1 | -0.31 | enough cells in well | 256 | 131
Adam33 (a disintegrin and metallopeptidase domain 33) | 1 | 0.27 | enough cells in well | 254 | 177
Phxr2 (per-hexamer repeat gene 2) | 1 | -0.37 | enough cells in well | 97.9 | 114
Vps13a (vacuolar protein sorting 13A) | 1 | 3.23 (active) | enough cells in well | 416 | 318
Edn1 (endothelin 1) | 1 | -0.17 | enough cells in well | 215 | 219
Prkn (parkin RBR E3 ubiquitin protein ligase) | 1 | 0.69 | enough cells in well | 260 | 254
Sh3glb1 (SH3-domain GRB2-like B1 (endophilin)) | 1 | 3.38 (active) | enough cells in well | 210 | 223
Ctc1 (CTS telomere maintenance complex component 1) | 1 | 3.43 (active) | enough cells in well | 545 | 172
Crkl (Crk like proto-oncogene, adaptor protein) | 1 | -1.22 | enough cells in well | 121 | 88
Arhgap8 (Rho GTPase activating protein 8) | 1 | – | fewer than 50 cells per well; well left out of calls | 173 | 70.2
Orai2 (ORAI calcium release-activated calcium modulator 2) | 1 | – | fewer than 50 cells per well; well left out of calls | 157 | 82.4
Fkbp11 (FK506 binding protein 11) | 1 | 1.08 | enough cells in well | 362 | 186
Rom1 (rod outer segment membrane protein 1) | 1 | -1.41 (active) | enough cells in well | 165 | 44
Dnaja1 (DnaJ heat shock protein family (Hsp40) member A1) | 1 | 0.22 | enough cells in well | 208 | 119
Cd209c (CD209c antigen) | 1 | -2.08 (active) | enough cells in well | 47.3 | 54.5
Chac1 (ChaC, cation transport regulator 1) | 1 | 0.74 | enough cells in well | 282 | 98.4
Or7g30 (olfactory receptor family 7 subfamily G member 30) | 1 | -1.53 (active) | enough cells in well | 63.6 | 54
Cap1 (cyclase associated actin cytoskeleton regulatory protein 1) | 1 | -1.35 (active) | enough cells in well | 85.5 | 78.8
Taar1 (trace amine-associated receptor 1) | 1 | -0.24 | enough cells in well | 280 | 49
Sh3pxd2a (SH3 and PX domains 2A) | 1 | -0.12 | enough cells in well | 263 | 211
Sh3pxd2a (SH3 and PX domains 2A) | 2 | – | fewer than 50 cells per well; well left out of calls | 208 | 156
Iftap (intraflagellar transport associated protein) | 1 | -0.41 | enough cells in well | 172 | 118
